Reference: paper PMC10920922

Test system: GST-TaPIF4 (Triticum aestivum)
Test: EMSA
Conditions: EMSA: 20 uL, 10% glycerol, 0.5 mM EDTA, 7.5 mM MgCl2, 0.05% NP-40, 50 ng/uL poly(dI-dC); recombinant protein; protein details: N-terminal GST (pGEX-4T-2)

**Q.** Does “CTCCCTCCGCTGCACCTGTGATTCTCAAGT (double strand) [TaMBF1c promoter E-box probe]” bind?
**A.** binds

The exact form of at least one protein or probe is not confirmed.
